One sequence from patent US5510473 can be followed below.

Construct, isoform or probe ends are uncertain for at least one entry. Tags and fusion partners may be left off the protein sequences shown.

In this data set the target is T1, RecA (Taq RecA) (Thermus aquaticus YT-1) (UniProt P48296).
T1 sequence: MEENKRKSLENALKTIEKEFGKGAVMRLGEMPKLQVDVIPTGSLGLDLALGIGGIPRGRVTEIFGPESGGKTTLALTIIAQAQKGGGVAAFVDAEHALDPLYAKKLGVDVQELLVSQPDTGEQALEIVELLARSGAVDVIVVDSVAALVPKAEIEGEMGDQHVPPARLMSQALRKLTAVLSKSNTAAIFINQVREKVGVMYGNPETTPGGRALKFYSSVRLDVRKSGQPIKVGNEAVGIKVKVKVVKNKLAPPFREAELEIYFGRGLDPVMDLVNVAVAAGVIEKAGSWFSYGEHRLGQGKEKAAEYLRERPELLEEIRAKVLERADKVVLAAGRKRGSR
Nature of the data set: filter binding. The settings on record: maximum retention at 5 ug RecA with 15 ng oligo at 65 C; optimum 45-70 C (peak about 55 C), less than 10% activity above 75 C; 1.1 mM ADP, 0.3 mM ATP-gamma-S; purified recombinant protein; protein details: untagged, expressed in E. coli JM109 from pTrc99a; label: 5'-32P; single-stranded DNA.

On to “CTGCAATGATACCGCGAGACCCACGCTCAC [30-mer oligonucleotide]”, for which the binding result is “binds”.
